Experimental findings from doi:10.1101/2024.11.16.623920 are described below.

These are yes or no findings as the source states them, for the method shown. In cells and extracts the contact can be indirect. For some assays here: A result given as binding can be weak or reduced; the word gives no strength. Tags and fused reporters may be left off the sequences shown.

The target of assay [1] is CaGpi3 (C. albicans Gpi3, GPI-GnT subunit) (C. albicans (endogenous in BWP17-derived cells)). Kind of assay: co-IP.
The target in assay [2] is CaGpi8 (C. albicans Gpi8, subunit of the GPI-transamidase) (C. albicans (endogenous in the cells)). Kind of assay: FRET or BRET. A general note: Bioluminescence resonance energy transfer reports proximity on the nanometre scale.

B1: CaArv1-V5 (C. albicans Arv1 tagged with V5 at its C-terminus) (protein, UniProt Q5ANH2 1-296)
chain: MICIECGYSNIDCLYSKYKSDYIKLSVCPECNKIADKYIEYDSVILFLDILLLKRQAYKHLAYNLTEMEMEIGSSTNFHINDNTNFKFFHTYRKLMKLIFMILSFEVYLTWANEEKLLIHSQLINLIFNQSVVYQYLFFIIKSSLENLILNLSLQLILRLGYKWGQGPQKINGNIRDKELFGYKTSVLLVTTMVSGSIRLFPILMFIWPYDNISITKPLINLIAFINIVEALRVVTSLGYVELILSLAFSIVIRNIVSKSLLVLIVRLFLDFNFTEVYYNEMYQLYSQIQTYIRWI
Consider B1, for which the binding result was “binds” in assay [1] and “no binding (tested: r > 10 nm)” in assay [2].
